Test results published in ChEMBL document CHEMBL3881524, “Use of benzothiazepines having activity as inhibitors of ileal bile acid transport for reducing cholesterololemia” (2005).

Assays:
Mus musculus [1] = assay: Reduction in plasma total cholesterol level in LDL receptor/ApoE deficient mouse at 80 to 100 mg/kg/day mixed with R3 chow diet by FPLC method relative to untreated control; assay type: functional; design: scale not given: the % may be the effect or the level left
Mus musculus [2] = assay: Effect on plasma triglyceride level in LDL receptor/ApoE deficient mouse at 80 to 100 mg/kg/day mixed with R3 chow diet relative to untreated control; assay type: functional

Work on `CC(C)c1c(C(=O)Nc2ccccc2)c(-c2ccccc2)c(-c2ccc(F)cc2)n1CC[C@@H](O)C[C@@H](O)CC(=O)[O-].CC(C)c1c(C(=O)Nc2ccccc2)c(-c2ccccc2)c(-c2ccc(F)cc2)n1CC[C@@H](O)C[C@@H](O)CC(=O)[O-].[Ca+2]` [ATORVASTATIN CALCIUM] yielded an Activity (Mus musculus [1]) of 24% and an Activity (Mus musculus [2]) of 59%.
